Source: the supplement of paper PMC12823440, “Inhibitors supercharge kinase turnover through native proteolytic circuits” (Nature, 2025)
Structures can show the parent of a compound that is named as a salt. The list shows a part of the results. The calls rarely recur for the same compound in another form.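 Kinases were expressed as nanoluciferase fusions in K562 cells and luminescence was read every 4 h between 2 and 18 h as percent of control, DMSO set to 100% and a positive control to 0%. A time point counts as decreased when the signal drops significantly (2 sigma). The hit call is the authors' own, does not follow from the count of time points alone, and its rule is not shown.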

By UniProt entry, the sequences of proteins in these tests, tags left out. Where a name states a change or a piece, a line headed by the entry shows the natural chain unless it says otherwise.
UniProt O75460: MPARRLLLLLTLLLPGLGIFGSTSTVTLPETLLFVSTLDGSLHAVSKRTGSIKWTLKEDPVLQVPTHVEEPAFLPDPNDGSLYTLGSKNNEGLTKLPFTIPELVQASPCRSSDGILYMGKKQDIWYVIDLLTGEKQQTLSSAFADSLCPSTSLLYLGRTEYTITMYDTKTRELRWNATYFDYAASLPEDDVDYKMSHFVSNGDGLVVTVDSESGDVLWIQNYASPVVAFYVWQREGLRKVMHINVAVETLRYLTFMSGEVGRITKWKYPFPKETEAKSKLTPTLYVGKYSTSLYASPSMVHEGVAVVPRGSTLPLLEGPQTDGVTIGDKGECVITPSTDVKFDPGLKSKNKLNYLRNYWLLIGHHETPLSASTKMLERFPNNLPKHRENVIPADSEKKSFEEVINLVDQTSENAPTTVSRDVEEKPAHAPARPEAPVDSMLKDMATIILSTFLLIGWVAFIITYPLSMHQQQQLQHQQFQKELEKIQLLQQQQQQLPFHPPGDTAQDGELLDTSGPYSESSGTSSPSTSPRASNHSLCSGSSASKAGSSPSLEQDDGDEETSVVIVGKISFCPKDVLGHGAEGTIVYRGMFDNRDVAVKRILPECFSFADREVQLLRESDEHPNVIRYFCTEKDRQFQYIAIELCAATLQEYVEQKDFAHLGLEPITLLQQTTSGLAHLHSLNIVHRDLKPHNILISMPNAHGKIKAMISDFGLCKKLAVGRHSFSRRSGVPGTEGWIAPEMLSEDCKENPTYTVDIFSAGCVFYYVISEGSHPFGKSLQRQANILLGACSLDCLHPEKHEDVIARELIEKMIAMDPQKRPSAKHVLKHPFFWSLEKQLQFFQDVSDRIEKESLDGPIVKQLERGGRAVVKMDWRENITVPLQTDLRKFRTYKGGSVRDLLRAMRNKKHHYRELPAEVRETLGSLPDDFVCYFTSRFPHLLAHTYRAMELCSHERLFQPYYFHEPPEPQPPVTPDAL
UniProt P11362, whole entry, looked up: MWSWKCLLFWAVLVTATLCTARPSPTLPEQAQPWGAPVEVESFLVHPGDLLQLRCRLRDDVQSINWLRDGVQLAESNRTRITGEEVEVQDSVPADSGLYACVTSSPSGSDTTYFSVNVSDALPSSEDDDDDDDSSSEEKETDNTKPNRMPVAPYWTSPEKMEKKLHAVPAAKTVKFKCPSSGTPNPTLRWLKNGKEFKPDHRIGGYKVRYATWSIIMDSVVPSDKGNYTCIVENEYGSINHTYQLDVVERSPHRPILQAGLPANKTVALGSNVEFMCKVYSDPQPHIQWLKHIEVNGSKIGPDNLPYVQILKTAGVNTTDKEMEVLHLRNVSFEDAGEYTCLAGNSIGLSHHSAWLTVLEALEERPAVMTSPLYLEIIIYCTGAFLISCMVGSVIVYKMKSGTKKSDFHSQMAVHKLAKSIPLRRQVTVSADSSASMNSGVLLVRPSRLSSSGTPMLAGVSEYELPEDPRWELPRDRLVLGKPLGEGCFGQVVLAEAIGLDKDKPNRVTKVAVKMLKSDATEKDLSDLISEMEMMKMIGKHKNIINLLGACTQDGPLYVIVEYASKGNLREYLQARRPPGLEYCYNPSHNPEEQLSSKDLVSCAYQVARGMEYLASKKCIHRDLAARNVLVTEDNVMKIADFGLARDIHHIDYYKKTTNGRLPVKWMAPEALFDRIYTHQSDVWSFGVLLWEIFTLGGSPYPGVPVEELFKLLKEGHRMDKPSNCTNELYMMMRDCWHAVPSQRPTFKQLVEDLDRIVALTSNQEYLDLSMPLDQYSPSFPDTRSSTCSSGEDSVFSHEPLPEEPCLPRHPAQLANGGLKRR
UniProt P22607, whole entry, looked up: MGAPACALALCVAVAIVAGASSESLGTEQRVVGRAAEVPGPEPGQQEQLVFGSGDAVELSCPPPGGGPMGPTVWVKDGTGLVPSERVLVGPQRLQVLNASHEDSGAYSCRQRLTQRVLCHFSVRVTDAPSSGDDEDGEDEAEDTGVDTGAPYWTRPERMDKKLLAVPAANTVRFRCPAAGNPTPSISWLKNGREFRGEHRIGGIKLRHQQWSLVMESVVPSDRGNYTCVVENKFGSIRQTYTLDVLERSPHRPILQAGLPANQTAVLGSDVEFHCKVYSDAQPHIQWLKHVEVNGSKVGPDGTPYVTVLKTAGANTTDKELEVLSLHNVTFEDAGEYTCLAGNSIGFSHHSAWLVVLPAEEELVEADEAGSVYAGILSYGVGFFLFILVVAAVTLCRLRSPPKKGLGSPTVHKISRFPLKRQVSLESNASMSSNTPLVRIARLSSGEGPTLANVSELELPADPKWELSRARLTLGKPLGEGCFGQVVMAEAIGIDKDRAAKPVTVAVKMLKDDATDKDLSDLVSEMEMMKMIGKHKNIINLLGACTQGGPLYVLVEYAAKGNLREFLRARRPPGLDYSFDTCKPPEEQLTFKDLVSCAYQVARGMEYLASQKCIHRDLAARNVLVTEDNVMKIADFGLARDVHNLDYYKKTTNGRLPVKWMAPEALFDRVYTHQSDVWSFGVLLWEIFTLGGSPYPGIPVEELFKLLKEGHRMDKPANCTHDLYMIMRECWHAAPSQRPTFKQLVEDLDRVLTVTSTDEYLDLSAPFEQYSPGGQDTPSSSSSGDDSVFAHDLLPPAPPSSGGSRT
UniProt P36888, whole entry: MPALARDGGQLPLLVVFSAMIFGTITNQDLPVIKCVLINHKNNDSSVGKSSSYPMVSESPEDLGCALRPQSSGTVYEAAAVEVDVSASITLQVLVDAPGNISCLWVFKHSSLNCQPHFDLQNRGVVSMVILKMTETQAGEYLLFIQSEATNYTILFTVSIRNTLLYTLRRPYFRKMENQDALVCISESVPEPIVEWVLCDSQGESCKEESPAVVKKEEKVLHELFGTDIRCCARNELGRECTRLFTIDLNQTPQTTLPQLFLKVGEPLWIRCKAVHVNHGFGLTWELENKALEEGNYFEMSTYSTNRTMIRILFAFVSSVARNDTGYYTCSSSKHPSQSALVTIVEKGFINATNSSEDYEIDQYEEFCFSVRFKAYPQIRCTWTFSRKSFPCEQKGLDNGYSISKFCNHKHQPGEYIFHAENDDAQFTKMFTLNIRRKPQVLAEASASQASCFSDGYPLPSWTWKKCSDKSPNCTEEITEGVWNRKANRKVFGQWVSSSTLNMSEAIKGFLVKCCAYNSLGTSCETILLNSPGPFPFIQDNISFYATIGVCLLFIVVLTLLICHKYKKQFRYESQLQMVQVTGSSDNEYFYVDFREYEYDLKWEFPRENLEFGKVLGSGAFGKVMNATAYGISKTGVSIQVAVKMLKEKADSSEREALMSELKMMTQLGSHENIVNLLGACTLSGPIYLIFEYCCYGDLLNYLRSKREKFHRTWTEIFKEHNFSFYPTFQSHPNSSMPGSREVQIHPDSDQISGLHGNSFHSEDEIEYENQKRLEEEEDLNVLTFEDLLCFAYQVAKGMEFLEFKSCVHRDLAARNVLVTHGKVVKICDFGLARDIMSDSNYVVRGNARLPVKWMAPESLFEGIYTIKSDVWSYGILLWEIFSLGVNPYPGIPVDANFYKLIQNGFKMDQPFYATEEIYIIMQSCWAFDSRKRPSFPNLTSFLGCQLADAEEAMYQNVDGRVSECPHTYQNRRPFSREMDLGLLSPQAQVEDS
UniProt P49840: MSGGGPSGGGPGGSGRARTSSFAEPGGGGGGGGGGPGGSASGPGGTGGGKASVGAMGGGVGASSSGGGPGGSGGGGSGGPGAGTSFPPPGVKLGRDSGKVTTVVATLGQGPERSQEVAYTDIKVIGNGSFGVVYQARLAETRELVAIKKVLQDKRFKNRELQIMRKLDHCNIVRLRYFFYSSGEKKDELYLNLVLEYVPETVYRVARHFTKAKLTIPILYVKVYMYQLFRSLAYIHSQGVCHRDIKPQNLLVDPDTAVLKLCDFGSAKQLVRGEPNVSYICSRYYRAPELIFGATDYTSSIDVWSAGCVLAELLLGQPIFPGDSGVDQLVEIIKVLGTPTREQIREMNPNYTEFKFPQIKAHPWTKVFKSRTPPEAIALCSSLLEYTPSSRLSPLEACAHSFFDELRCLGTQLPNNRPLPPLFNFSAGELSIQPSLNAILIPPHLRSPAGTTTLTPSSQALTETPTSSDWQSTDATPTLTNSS
UniProt P21802, whole entry, looked up: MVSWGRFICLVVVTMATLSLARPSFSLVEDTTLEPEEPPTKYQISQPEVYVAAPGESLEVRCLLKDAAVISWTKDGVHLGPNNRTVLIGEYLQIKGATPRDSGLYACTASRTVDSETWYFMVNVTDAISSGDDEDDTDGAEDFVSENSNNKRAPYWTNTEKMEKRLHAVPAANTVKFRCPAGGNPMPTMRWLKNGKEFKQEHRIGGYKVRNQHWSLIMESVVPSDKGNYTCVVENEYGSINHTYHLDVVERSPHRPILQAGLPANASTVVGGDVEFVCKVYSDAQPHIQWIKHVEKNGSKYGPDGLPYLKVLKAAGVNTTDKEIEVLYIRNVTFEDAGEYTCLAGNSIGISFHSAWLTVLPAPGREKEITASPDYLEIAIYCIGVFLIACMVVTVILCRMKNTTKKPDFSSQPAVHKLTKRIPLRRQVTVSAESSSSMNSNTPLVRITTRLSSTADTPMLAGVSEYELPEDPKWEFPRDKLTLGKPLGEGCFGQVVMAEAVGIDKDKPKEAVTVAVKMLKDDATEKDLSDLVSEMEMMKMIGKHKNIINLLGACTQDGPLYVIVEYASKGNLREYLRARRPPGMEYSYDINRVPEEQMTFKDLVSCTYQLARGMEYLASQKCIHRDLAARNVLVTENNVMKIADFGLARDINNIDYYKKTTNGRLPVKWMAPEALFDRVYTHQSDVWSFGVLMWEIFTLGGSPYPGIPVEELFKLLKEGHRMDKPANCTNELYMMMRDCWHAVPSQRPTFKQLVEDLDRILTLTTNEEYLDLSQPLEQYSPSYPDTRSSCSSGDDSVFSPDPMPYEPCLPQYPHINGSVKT
UniProt P06241, whole entry, looked up: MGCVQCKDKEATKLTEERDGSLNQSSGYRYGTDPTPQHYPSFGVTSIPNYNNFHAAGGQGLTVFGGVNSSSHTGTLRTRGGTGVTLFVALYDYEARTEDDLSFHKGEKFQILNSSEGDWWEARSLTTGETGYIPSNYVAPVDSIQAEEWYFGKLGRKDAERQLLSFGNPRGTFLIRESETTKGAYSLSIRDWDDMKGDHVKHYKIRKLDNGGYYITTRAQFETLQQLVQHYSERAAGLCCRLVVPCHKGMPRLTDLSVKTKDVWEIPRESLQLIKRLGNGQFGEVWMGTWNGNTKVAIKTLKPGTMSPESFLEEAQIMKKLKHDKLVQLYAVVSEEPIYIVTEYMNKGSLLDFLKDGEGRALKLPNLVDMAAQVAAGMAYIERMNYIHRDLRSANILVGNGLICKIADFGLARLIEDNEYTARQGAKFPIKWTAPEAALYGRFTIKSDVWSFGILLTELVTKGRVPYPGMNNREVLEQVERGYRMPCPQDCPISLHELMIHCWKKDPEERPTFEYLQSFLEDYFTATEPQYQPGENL

Legend:
Experiment in all cases: kinase-Nluc reporter destabilization hit call (1 = scored as downregulated) (binary); higher = compound decreases kinase abundance
Details in all cases: K562; 2-18 h
ERN1 = ERN1 (UniProt O75460)
FGFR1 = FGFR1 (UniProt P11362)
FGFR3 = FGFR3 (UniProt P22607)
FGR = FGR (UniProt P09769)
FLT3 = FLT3 (UniProt P36888)
GSK3A = GSK3A (UniProt P49840)
HER2 = HER2 (UniProt P04626)
INSRR = INSRR (UniProt P14616)
FGFR2 = FGFR2 (UniProt P21802)
FYN = FYN (UniProt P06241)

Measured: kinase-Nluc reporter destabilization hit call

COc1cc(Nc2ncc(F)c(Nc3ccc4c(n3)NC(=O)C(C)(C)O4)n2)cc(OC)c1OC (10 µM)
inactive: ERN1 = 0 | FGFR1 = 0 | FGFR3 = 0 | FGR 0 | FLT3 = 0 | GSK3A 0 | HER2 = 0 | INSRR 0

O=C(Nc1ccc(CN2CCOCC2)cc1)c1ccc(-c2cccc(Cl)c2)o1 (10 µM)
inactive: ERN1 = 0 | FGFR1 = 0 | FGFR2 = 0 | FGFR3 = 0 | FGR 0 | FLT3 = 0 | FYN 0 | GSK3A 0 | HER2 = 0 | INSRR 0

Cc1nc2sccn2c(=O)c1CCN1CCC(=C(c2ccccc2)c2ccc(F)cc2)CC1 (10 µM)
inactive: ERN1 = 0 | FGFR1 = 0 | FGFR2 = 0 | FGFR3 = 0 | FGR 0 | FLT3 = 0 | FYN 0 | GSK3A 0 | HER2 = 0 | INSRR 0

COc1cc(Nc2ncc(F)c(Nc3ccc4c(n3)NC(=O)C(C)(C)O4)n2)cc(OC)c1OC [R406 (free base)] (10 µM)
inactive: ERN1 = 0 | FGFR1 = 0 | FGFR3 = 0 | FGR 0 | FLT3 = 0 | GSK3A 0 | HER2 = 0 | INSRR 0

CCNc1nc(Nc2cc(F)c(C(=O)N3CCOCC3)cc2OC)ncc1C(F)(F)F [GNE-7915 (tosylate)] (10 µM)
inactive: ERN1 = 0 | FGFR1 = 0 | FGFR2 = 0 | FGFR3 = 0 | FGR 0 | FLT3 = 0 | FYN 0 | GSK3A 0 | HER2 = 0 | INSRR 0

C[C@@H](c1ccc(F)cc1)n1nnc2cnc3ccc(-c4ccc5ocnc5c4)cc3c21 (10 µM)
inactive: ERN1 = 0 | FGFR1 = 0 | FGFR2 = 0 | FGFR3 = 0 | FGR 0 | FLT3 = 0 | FYN 0 | GSK3A 0 | HER2 = 0 | INSRR 0

C=CC(=O)Nc1cccc(Nc2nc(Nc3ccc(N4CCN(C(C)=O)CC4)cc3OC)ncc2C(F)(F)F)c1 [Rociletinib hydrobromide] (10 µM)
inactive: ERN1 = 0 | FGFR1 = 0 | FGFR2 = 0 | FGFR3 = 0 | FGR 0 | FLT3 = 0 | FYN 0 | GSK3A 0 | HER2 = 0 | INSRR 0

COc1cccc(OC)c1C(=O)OCc1cc(O)ccc1O[C@@H]1O[C@H](CO)[C@@H](O)[C@H](O)[C@H]1O [Curculigoside] (10 µM)
inactive: ERN1 = 0 | FGFR1 = 0 | FGFR2 = 0 | FGFR3 = 0 | FGR 0 | FLT3 = 0 | FYN 0 | GSK3A 0 | HER2 = 0 | INSRR 0

COc1cc2nccc(Oc3ccc(NC(=O)NC4CC4)c(Cl)c3)c2cc1C(N)=O [Lenvatinib] (10 µM)
inactive: ERN1 = 0 | FGFR1 = 0 | FGFR2 = 0 | FGFR3 = 0 | FGR 0 | FLT3 = 0 | FYN 0 | GSK3A 0 | HER2 = 0 | INSRR 0

Cn1cc(-c2ccc3c(c2)CCN3C(=O)Cc2cccc(C(F)(F)F)c2)c2c(N)ncnc21 (2.5 µM)
inactive: ERN1 = 0 | FGFR1 = 0 | FGFR2 = 0 | FGFR3 = 0 | FGR 0 | FLT3 = 0 | FYN 0 | GSK3A 0 | HER2 = 0 | INSRR 0

COc1cc2ncc(-c3ccccc3)nc2cc1OC [Tyrphostin AG1296] (10 µM)
inactive: ERN1 = 0 | FGFR1 = 0 | FGFR2 = 0 | FGFR3 = 0 | FGR 0 | FLT3 = 0 | FYN 0 | GSK3A 0 | HER2 = 0 | INSRR 0

CC(=O)c1c(C)cc2cccc(O)c2c1O [Nepodin] (10 µM)
inactive: ERN1 = 0 | FGFR1 = 0 | FGFR2 = 0 | FGFR3 = 0 | FGR 0 | FLT3 = 0 | FYN 0 | GSK3A 0 | HER2 = 0 | INSRR 0

CC(C)(C)c1cc(O)ccc1O (10 µM)
inactive: ERN1 = 0 | FGFR1 = 0 | FGFR2 = 0 | FGFR3 = 0 | FGR 0 | FLT3 = 0 | FYN 0 | GSK3A 0 | HER2 = 0 | INSRR 0

COc1ccc(-c2ccc3c(N4CCOCC4)nc(N4C[C@@H](C)O[C@@H](C)C4)nc3n2)cc1CO (2.5 µM)
inactive: ERN1 = 0 | FGFR1 = 0 | FGFR2 = 0 | FGFR3 = 0 | FGR 0 | FLT3 = 0 | FYN 0 | GSK3A 0 | HER2 = 0 | INSRR 0

O=C1N[C@@H](Cc2c[nH]c3ccccc23)C(=O)N2CCC[C@@H]12 [Brevianamide F] (10 µM)
inactive: ERN1 = 0 | FGFR1 = 0 | FGFR2 = 0 | FGFR3 = 0 | FGR 0 | FLT3 = 0 | FYN 0 | GSK3A 0 | HER2 = 0 | INSRR 0

CN1CCC(c2cc(-c3ccncc3)c(-c3ccc(F)cc3)[nH]2)CC1 (10 µM)
inactive: ERN1 = 0 | FGFR1 = 0 | FGFR2 = 0 | FGFR3 = 0 | FGR 0 | FLT3 = 0 | FYN 0 | GSK3A 0 | HER2 = 0 | INSRR 0

CN(C)C(=O)Cn1cc(-c2ccc(-c3cncc4ccccc34)cc2)cn1 (10 µM)
inactive: ERN1 = 0 | FGFR1 = 0 | FGFR2 = 0 | FGFR3 = 0 | FGR 0 | FLT3 = 0 | FYN 0 | GSK3A 0 | HER2 = 0 | INSRR 0

O=C(Nc1cn[nH]c1-c1ccccn1)c1nn(C2CCNCC2)cc1Cl (10 µM)
inactive: ERN1 = 0 | FGFR1 = 0 | FGFR2 = 0 | FGFR3 = 0 | FGR 0 | FLT3 = 0 | FYN 0 | GSK3A 0 | HER2 = 0 | INSRR 0

COc1cc2c(N3CCN(C(=O)Nc4ccc(OC(C)C)cc4)CC3)ncnc2cc1OCCCN1CCCCC1 [Tandutinib] (10 µM)
inactive: ERN1 = 0 | FGFR1 = 0 | FGFR2 = 0 | FGFR3 = 0 | FGR 0 | FYN 0 | GSK3A 0 | HER2 = 0 | INSRR 0

COc1ccccc1-c1cc(Nc2cccc(CS(N)(=O)=O)c2)ncn1 (10 µM)
inactive: ERN1 = 0 | FGFR1 = 0 | FGFR2 = 0 | FGFR3 = 0 | FGR 0 | FLT3 = 0 | FYN 0 | GSK3A 0 | HER2 = 0 | INSRR 0

Cc1cccc(-c2[nH]ncc2-c2ccc(F)c(-c3cnn(CCO)c3)c2)n1 (10 µM)
inactive: ERN1 = 0 | FGFR1 = 0 | FGFR2 = 0 | FGFR3 = 0 | FGR 0 | FLT3 = 0 | FYN 0 | GSK3A 0 | HER2 = 0 | INSRR 0

O=C([O-])c1cc2ccccc2c(Cc2c(O)c(C(=O)[O-])cc3ccccc23)c1O.[Na+].[Na+] [Pamoic acid (disodium)] (10 µM)
inactive: ERN1 = 0 | FGFR1 = 0 | FGFR2 = 0 | FGFR3 = 0 | FGR 0 | FLT3 = 0 | FYN 0 | GSK3A 0 | HER2 = 0 | INSRR 0

O=C(O)CCC(=O)Nc1ccc(Br)cn1 [Bikinin] (10 µM)
inactive: ERN1 = 0 | FGFR1 = 0 | FGFR2 = 0 | FGFR3 = 0 | FGR 0 | FLT3 = 0 | FYN 0 | GSK3A 0 | HER2 = 0 | INSRR 0

C[C@]1(O)CCN(c2nc(N3C[C@H](O)[C@@H](O)C3)cc(C(F)(F)F)c2C#N)C1 (10 µM)
inactive: ERN1 = 0 | FGFR1 = 0 | FGFR2 = 0 | FGFR3 = 0 | FGR 0 | FLT3 = 0 | FYN 0 | GSK3A 0 | HER2 = 0 | INSRR 0

CN1CCN(c2cccc(Nc3nc4c(-c5ccc(S(C)(=O)=O)cc5)cccn4n3)c2)CC1 (10 µM)
inactive: ERN1 = 0 | FGFR1 = 0 | FGFR2 = 0 | FGFR3 = 0 | FGR 0 | FLT3 = 0 | FYN 0 | GSK3A 0 | HER2 = 0 | INSRR 0

NS(=O)(=O)c1ccc(-n2nc(C(F)(F)F)cc2-c2ccc(Cl)cc2)cc1 (10 µM)
inactive: ERN1 = 0 | FGFR1 = 0 | FGFR2 = 0 | FGFR3 = 0 | FGR 0 | FLT3 = 0 | FYN 0 | GSK3A 0 | HER2 = 0 | INSRR 0

C=CC(=O)Nc1cc(Nc2ncc(Cl)c(-c3c[nH]c4ccccc34)n2)c(OC)cc1N(C)CCN(C)C [Mutant EGFR inhibitor] (2.5 µM)
inactive: ERN1 = 0 | FGFR1 = 0 | FGFR2 = 0 | FGFR3 = 0 | FGR 0 | FLT3 = 0 | FYN 0 | GSK3A 0 | HER2 = 0 | INSRR 0

C[C@@]1(c2ncncc2F)NC(=O)c2cc(-c3cn[nH]c3)ccc21 (10 µM)
inactive: ERN1 = 0 | FGFR1 = 0 | FGFR2 = 0 | FGFR3 = 0 | FGR 0 | FLT3 = 0 | FYN 0 | GSK3A 0 | HER2 = 0 | INSRR 0

CC#CC(=O)N1CC[C@@H](n2c(=O)n(-c3ccc(Oc4ccccc4)cc3)c3c(N)ncnc32)C1 [Tirabrutinib] (10 µM)
inactive: ERN1 = 0 | FGFR1 = 0 | FGFR2 = 0 | FGFR3 = 0 | FGR 0 | FLT3 = 0 | FYN 0 | GSK3A 0 | HER2 = 0 | INSRR 0

N#CCC1CCN(c2nc(Nc3ccc(N4CCC(O)CC4)cc3)c3c(=O)[nH]ncc3n2)CC1 [Gusacitinib] (10 µM)
inactive: ERN1 = 0 | FGFR1 = 0 | FGFR2 = 0 | FGFR3 = 0 | FGR 0 | FLT3 = 0 | FYN 0 | GSK3A 0 | HER2 = 0 | INSRR 0

Cc1ccc(CNc2ncnc3ccc(-c4ccc(CO)o4)cc23)o1 (10 µM)
inactive: ERN1 = 0 | FGFR1 = 0 | FGFR2 = 0 | FGFR3 = 0 | FGR 0 | FLT3 = 0 | FYN 0 | GSK3A 0 | HER2 = 0 | INSRR 0

Cn1cc(-c2ccc3nnc(Sc4ccc5ncccc5c4)n3n2)cn1 (10 µM)
inactive: ERN1 = 0 | FGFR1 = 0 | FGFR2 = 0 | FGFR3 = 0 | FGR 0 | FLT3 = 0 | FYN 0 | GSK3A 0 | HER2 = 0 | INSRR 0

COc1cc2c(cc1OC)CN(S(=O)(=O)c1ccc(OC)c(N3CCN(C(=O)c4ccc(F)cc4C(F)(F)F)CC3)c1)CC2 (10 µM)
inactive: ERN1 = 0 | FGFR1 = 0 | FGFR2 = 0 | FGFR3 = 0 | FGR 0 | FLT3 = 0 | FYN 0 | GSK3A 0 | HER2 = 0 | INSRR 0

Two successive entries from above, quoted:
COc1cccc(OC)c1C(=O)OCc1cc(O)ccc1O[C@@H]1O[C@H](CO)[C@@H](O)[C@H](O)[C@H]1O [Curculigoside] (10 µM)
inactive: ERN1 = 0 | FGFR1 = 0 | FGFR2 = 0 | FGFR3 = 0 | FGR 0 | FLT3 = 0 | FYN 0 | GSK3A 0 | HER2 = 0 | INSRR 0

COc1cc2nccc(Oc3ccc(NC(=O)NC4CC4)c(Cl)c3)c2cc1C(N)=O [Lenvatinib] (10 µM)
inactive: ERN1 = 0 | FGFR1 = 0 | FGFR2 = 0 | FGFR3 = 0 | FGR 0 | FLT3 = 0 | FYN 0 | GSK3A 0 | HER2 = 0 | INSRR 0
